No constants are given. Whether binding was seen depends on the method and setting. In cells and extracts the contact can be indirect. A yes stands for co-enrichment or nearness to the bait. Other partners may have been found.

Chains of the proteins cited; added tags and fusions are not shown.
UniProt Q9NRC8: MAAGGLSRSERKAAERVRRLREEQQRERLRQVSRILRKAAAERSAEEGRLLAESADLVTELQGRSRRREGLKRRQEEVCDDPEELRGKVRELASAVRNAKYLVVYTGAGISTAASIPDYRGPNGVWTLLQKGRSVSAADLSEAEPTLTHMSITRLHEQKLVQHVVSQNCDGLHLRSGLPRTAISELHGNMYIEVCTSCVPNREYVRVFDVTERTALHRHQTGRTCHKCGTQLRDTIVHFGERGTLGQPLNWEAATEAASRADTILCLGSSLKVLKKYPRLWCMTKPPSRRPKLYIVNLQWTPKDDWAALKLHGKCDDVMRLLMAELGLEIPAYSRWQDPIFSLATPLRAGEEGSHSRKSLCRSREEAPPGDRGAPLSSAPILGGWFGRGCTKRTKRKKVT
UniProt P09429: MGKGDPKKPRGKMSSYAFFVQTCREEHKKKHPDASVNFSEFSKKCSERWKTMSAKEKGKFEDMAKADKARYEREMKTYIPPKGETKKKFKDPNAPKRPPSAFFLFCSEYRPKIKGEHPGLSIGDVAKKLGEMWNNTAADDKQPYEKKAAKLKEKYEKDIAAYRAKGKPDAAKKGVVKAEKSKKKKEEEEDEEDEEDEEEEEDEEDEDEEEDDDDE

The target of the test is SIRT7 (human (endogenous in HaCaT)) (UniProt Q9NRC8). As to the kind of experiment: affinity purification with mass spectrometry; immunoprecipitation with SIRT7 antibody against control IgG from keratinocytes, control and IR-treated; SDS-PAGE, trypsin digest, orbitrap LC-MS/MS.

As to “High-mobility group box 1 (HMGB1) (from UniProt P09429 1-215)”, the binding result is reported as “binds”.

(Values after paper PMC9805450.)
